From article PMC11068891 come the findings set out here.

By UniProt entry, the sequences of proteins in these tests, tags left out.
UniProt Q8IIW4: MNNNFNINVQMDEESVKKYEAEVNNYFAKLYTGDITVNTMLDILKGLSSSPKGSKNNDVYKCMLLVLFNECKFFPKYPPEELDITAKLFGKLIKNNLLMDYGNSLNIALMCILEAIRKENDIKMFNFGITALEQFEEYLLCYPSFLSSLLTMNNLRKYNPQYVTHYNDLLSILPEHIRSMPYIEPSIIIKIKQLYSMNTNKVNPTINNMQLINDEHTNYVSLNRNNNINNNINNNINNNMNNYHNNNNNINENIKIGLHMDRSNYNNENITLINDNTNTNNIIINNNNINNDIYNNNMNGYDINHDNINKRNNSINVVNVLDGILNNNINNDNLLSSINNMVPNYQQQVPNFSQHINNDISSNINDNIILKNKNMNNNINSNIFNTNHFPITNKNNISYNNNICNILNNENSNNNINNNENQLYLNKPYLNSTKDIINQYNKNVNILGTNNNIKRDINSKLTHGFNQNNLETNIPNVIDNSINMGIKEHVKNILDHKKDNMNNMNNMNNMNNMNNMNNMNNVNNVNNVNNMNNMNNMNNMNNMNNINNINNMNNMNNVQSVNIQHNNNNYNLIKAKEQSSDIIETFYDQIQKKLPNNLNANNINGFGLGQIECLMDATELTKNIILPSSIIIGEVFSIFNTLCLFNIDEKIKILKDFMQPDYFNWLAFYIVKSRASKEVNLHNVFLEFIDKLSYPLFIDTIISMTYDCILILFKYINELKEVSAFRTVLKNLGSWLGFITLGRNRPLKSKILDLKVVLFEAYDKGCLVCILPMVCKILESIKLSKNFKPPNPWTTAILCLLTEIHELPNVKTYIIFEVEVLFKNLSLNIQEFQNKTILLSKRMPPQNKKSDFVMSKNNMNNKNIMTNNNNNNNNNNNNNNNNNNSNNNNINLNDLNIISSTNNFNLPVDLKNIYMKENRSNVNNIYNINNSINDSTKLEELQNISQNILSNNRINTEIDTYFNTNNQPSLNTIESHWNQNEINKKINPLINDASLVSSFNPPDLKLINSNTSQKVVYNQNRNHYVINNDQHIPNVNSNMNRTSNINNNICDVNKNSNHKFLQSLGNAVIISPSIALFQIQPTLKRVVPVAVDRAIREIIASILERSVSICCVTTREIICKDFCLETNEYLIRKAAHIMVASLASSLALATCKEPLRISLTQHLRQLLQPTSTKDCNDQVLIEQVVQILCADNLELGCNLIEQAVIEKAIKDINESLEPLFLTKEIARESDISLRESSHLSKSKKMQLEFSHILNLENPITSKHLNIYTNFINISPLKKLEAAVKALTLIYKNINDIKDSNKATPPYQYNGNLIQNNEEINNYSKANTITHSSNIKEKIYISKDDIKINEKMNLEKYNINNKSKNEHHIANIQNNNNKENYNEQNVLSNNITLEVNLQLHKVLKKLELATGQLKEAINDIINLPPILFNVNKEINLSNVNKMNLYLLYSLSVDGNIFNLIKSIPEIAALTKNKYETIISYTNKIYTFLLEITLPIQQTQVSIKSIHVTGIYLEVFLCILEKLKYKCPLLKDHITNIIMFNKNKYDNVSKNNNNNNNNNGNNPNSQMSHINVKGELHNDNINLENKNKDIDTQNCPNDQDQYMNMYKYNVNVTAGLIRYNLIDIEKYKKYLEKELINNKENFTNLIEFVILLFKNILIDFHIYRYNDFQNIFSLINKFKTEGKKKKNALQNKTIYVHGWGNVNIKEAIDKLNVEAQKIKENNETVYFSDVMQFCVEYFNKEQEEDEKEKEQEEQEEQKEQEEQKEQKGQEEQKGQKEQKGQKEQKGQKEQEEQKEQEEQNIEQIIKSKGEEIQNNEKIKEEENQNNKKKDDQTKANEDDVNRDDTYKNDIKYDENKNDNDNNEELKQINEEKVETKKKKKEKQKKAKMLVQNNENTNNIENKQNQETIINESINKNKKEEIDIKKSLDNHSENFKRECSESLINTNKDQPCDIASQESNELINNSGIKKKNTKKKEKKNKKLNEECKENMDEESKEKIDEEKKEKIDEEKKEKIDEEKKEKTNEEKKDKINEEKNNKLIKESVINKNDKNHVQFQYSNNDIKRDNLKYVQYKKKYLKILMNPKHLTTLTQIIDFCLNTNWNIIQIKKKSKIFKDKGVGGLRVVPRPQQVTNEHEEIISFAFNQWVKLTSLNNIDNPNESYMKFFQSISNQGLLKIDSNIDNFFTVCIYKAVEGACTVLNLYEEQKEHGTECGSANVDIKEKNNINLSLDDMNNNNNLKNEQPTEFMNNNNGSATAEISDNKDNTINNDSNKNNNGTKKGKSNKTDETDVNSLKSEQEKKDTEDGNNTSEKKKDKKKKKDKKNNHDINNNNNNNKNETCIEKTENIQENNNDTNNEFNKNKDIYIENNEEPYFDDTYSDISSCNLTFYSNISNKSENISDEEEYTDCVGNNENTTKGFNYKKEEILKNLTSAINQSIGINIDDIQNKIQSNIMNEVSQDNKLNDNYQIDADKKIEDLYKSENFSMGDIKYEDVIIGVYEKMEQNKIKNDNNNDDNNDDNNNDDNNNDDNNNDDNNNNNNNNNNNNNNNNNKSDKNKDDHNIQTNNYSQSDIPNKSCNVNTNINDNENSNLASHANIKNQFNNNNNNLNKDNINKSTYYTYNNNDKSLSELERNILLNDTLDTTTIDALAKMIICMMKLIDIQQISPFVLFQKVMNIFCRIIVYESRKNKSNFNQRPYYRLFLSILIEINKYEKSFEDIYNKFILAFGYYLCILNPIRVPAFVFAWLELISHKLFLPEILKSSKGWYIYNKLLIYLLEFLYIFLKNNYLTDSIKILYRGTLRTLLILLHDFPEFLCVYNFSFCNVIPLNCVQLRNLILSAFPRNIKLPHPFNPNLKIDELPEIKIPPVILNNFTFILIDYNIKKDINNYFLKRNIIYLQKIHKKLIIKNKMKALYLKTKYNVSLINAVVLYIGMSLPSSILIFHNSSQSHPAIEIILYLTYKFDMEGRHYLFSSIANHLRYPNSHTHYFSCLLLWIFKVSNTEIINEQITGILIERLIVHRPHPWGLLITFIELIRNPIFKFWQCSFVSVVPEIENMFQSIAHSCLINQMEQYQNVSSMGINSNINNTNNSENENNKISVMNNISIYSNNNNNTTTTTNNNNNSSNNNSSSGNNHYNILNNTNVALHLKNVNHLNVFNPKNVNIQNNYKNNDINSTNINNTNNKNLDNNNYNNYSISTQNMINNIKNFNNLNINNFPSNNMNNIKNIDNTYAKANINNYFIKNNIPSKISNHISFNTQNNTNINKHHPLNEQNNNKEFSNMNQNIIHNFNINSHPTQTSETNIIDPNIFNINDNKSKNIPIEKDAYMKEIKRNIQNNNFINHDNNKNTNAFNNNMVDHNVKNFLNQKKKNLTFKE

No constants are given. Whether binding was seen depends on the method and setting. In cells and extracts the contact can be indirect. A yes stands for co-enrichment or nearness to the bait. Other partners may have been found. For some assays here: No binding means not detected with the bait. Tags and fused reporters may be left off the sequences shown.

Assay [1] has as its target T1, PfDCP2::GFP (P. falciparum (endogenous in 3D7 parasites)) (UniProt Q8IEM5).
T1 sequence: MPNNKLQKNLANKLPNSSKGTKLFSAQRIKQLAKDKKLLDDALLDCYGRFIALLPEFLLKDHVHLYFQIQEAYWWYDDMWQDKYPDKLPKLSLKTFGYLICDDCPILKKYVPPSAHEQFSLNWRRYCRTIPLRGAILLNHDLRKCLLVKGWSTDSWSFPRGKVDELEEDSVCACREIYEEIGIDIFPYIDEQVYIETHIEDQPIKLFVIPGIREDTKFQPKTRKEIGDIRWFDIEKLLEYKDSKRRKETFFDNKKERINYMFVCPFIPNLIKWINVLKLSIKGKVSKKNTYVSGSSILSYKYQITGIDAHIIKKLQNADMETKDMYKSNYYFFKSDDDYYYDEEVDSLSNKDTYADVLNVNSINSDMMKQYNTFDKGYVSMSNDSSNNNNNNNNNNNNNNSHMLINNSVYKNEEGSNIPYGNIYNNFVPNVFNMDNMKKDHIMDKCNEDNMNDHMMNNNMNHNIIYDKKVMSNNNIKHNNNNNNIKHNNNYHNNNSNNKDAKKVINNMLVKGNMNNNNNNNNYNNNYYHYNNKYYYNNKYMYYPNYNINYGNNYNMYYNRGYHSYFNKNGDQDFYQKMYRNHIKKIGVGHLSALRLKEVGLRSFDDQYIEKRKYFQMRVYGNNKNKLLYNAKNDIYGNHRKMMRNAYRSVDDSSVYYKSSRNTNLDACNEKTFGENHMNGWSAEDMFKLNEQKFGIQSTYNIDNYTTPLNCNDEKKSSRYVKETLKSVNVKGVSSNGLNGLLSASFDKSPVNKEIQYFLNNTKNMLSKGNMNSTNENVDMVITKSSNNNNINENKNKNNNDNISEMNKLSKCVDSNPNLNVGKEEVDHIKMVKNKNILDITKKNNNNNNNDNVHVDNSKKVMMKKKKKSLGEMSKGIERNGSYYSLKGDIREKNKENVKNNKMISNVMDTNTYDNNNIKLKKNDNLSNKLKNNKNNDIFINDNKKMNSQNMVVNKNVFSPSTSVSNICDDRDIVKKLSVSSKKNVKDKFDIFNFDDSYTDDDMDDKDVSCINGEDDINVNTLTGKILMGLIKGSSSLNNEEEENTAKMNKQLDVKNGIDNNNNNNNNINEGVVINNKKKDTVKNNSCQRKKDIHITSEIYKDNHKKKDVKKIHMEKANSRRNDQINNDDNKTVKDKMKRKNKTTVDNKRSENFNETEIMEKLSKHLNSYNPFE
Nature of the assay: affinity purification with mass spectrometry; GFP-Trap beads with lysate of PfDCP2::GFP parasites at the schizont stage; same buffers (300 mM NaCl, 0.1% NP40), 4 °C, 2 h; agarose beads as control; LC-MS/MS, SAINT, FDR 1%.

Assay [2] deals with T2, PfDOZI::GFP (P. falciparum (endogenous in 3D7 parasites)) (UniProt O97285).
T2 sequence: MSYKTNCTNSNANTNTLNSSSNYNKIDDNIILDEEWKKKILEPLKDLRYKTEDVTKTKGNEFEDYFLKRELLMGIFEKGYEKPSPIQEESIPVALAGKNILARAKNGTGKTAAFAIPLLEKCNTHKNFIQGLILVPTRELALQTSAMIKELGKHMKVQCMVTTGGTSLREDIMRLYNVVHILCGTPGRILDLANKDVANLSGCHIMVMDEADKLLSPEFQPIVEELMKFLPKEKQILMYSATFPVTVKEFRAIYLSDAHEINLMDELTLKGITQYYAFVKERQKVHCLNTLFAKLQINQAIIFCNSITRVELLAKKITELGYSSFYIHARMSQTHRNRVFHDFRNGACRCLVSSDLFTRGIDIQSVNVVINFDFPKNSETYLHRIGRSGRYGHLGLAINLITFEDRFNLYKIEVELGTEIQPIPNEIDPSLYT
Nature of the assay: affinity purification with mass spectrometry; GFP-Trap beads with lysate of PfDOZI::GFP schizonts under normal culture, native conditions; lysis and wash buffer 300 mM NaCl, 20 mM HEPES pH 7.9, 2 mM MgCl2, 0.2 mM EDTA, 0.1% NP40, 0.5 mM DTT; 4 °C, 2 h; agarose beads as control; LC-MS/MS in triplicate, SAINT, FDR 1%.

Assay [3] deals with T2, PfDOZI::GFP (P. falciparum (endogenous in 3D7 parasites)). Kind of assay: affinity purification with mass spectrometry; GFP-Trap beads with lysate of purified PfDOZI::GFP gametocytes (day 5), native conditions; same buffers (300 mM NaCl, 0.1% NP40), 4 °C, 2 h; agarose beads as control; LC-MS/MS in triplicate, SAINT, FDR 1%.
Assay [4] concerns the target T3, PfGBP2::GFP (P. falciparum (endogenous in 3D7 parasites)) (UniProt Q8IJX3).
T3 sequence: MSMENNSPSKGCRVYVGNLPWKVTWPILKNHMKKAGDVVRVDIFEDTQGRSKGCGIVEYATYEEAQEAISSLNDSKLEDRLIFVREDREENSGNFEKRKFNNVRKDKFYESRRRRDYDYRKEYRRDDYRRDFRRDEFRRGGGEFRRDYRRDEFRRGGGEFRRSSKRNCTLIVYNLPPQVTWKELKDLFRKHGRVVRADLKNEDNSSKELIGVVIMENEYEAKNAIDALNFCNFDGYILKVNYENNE
Nature of the assay: affinity purification with mass spectrometry; GFP-Trap beads with lysate of PfGBP2::GFP stressed schizonts; same buffers (300 mM NaCl, 0.1% NP40), 4 °C, 2 h; agarose beads as control; LC-MS/MS, SAINT, FDR 1%.

Assay [5] addresses T2, PfDOZI::GFP (P. falciparum (endogenous in 3D7 parasites)). Kind of assay: affinity purification with mass spectrometry; GFP-Trap beads with lysate of PfDOZI::GFP schizonts under nutrient starvation (stressed schizonts), native conditions; same buffers (300 mM NaCl, 0.1% NP40), 4 °C, 2 h; agarose beads as control; LC-MS/MS in triplicate, SAINT, FDR 1%.

Take NOT1 (from UniProt Q8IIW4 1-3371): the binding entry in assay [1], in assay [2] and in assay [3] was “binds” throughout.
Turning to NOT1-G (from UniProt Q8ILS4 1-4466), the binding entry in assay [1] and in assay [3] was “binds” throughout.

B1: DCP2 (protein, UniProt Q8IEM5 1-1173)
chain: MPNNKLQKNLANKLPNSSKGTKLFSAQRIKQLAKDKKLLDDALLDCYGRFIALLPEFLLKDHVHLYFQIQEAYWWYDDMWQDKYPDKLPKLSLKTFGYLICDDCPILKKYVPPSAHEQFSLNWRRYCRTIPLRGAILLNHDLRKCLLVKGWSTDSWSFPRGKVDELEEDSVCACREIYEEIGIDIFPYIDEQVYIETHIEDQPIKLFVIPGIREDTKFQPKTRKEIGDIRWFDIEKLLEYKDSKRRKETFFDNKKERINYMFVCPFIPNLIKWINVLKLSIKGKVSKKNTYVSGSSILSYKYQITGIDAHIIKKLQNADMETKDMYKSNYYFFKSDDDYYYDEEVDSLSNKDTYADVLNVNSINSDMMKQYNTFDKGYVSMSNDSSNNNNNNNNNNNNNNSHMLINNSVYKNEEGSNIPYGNIYNNFVPNVFNMDNMKKDHIMDKCNEDNMNDHMMNNNMNHNIIYDKKVMSNNNIKHNNNNNNIKHNNNYHNNNSNNKDAKKVINNMLVKGNMNNNNNNNNYNNNYYHYNNKYYYNNKYMYYPNYNINYGNNYNMYYNRGYHSYFNKNGDQDFYQKMYRNHIKKIGVGHLSALRLKEVGLRSFDDQYIEKRKYFQMRVYGNNKNKLLYNAKNDIYGNHRKMMRNAYRSVDDSSVYYKSSRNTNLDACNEKTFGENHMNGWSAEDMFKLNEQKFGIQSTYNIDNYTTPLNCNDEKKSSRYVKETLKSVNVKGVSSNGLNGLLSASFDKSPVNKEIQYFLNNTKNMLSKGNMNSTNENVDMVITKSSNNNNINENKNKNNNDNISEMNKLSKCVDSNPNLNVGKEEVDHIKMVKNKNILDITKKNNNNNNNDNVHVDNSKKVMMKKKKKSLGEMSKGIERNGSYYSLKGDIREKNKENVKNNKMISNVMDTNTYDNNNIKLKKNDNLSNKLKNNKNNDIFINDNKKMNSQNMVVNKNVFSPSTSVSNICDDRDIVKKLSVSSKKNVKDKFDIFNFDDSYTDDDMDDKDVSCINGEDDINVNTLTGKILMGLIKGSSSLNNEEEENTAKMNKQLDVKNGIDNNNNNNNNINEGVVINNKKKDTVKNNSCQRKKDIHITSEIYKDNHKKKDVKKIHMEKANSRRNDQINNDDNKTVKDKMKRKNKTTVDNKRSENFNETEIMEKLSKHLNSYNPFE
For the molecule B1, the binding entry was “binds” in assay [2] and “no binding” in assay [4].

B2: PABP1 (protein, UniProt Q8I5H4 1-875)
chain: MIATGTNMMHPSFSTASLYVGDLNEDVTEAVLYEIFNTVGHVSSIRVCRDSVTRKSLGYAYVNYHNLADAERALDTLNYTNIKGQPARLMWSHRDPSLRKSGTGNIFVKNLDKSIDNKALFDTFSMFGNILSCKVATDEFGKSKSYGFVHYEDEESAKEAIEKVNGVQLGSKNVYVGPFIKKSERATNDTKFTNLYVKNFPDSVTETHLRQLFNPYGEITSMIVKMDNKNRKFCFINYADAESAKNAMDNLNGKKITDDGQIDETYDPKKEEATASTSGAANQTTGTDADKTDKNDKNNKADKNEKGDSSNANNNATATGATTTDTTTTPGETTTTTANADSTGANNNNGLSPNTNTSNTTTGSSNNSINLNENNNTAGNNNSTNNNNNSGSSMNNAGSAKKDETAASDCADTPNILYVGPHQSRARRHAILKAKFDNLNVENKNKHQGVNLYIKNLDDGIDDIMLRELFEPFGTITSAKVMRDEKEQSKGFGFVCFASQEEANKAVTEMHLKIINGKPLYVGLAEKREQRLSRLQQRFRMHPIRHHMNNPLNTPMQYASPQSPQLQFSQNTLSYGRPVITAFNQNNLISWRHQQAAQQQAVHQQAVHQQAAQQQLNFNTNLRGQINQMRLYTQNNMMNNNLNQNKPNAQLHHNQQYVPNALAQNGQQQPNLNAAGQHNAQQLQQQGNNQLLNNNMRNMNNRANRNMGNLGNMNNQKQLPLNINNKQQNAASQANQMNHQAQPQGAQAQQKNPQQMQQVPQGNNFKFTAQARNRMELPNKNANKVNTMNNNMNVNFNNNSTLTAAALASAPPSMQKQVLGENLFPLVANYHPTLAGKITGMMLEMDNSELLILLENEEQLKKKIDEALVVLQKAK
On to B2, for which the binding entry in assay [2], in assay [3] and in assay [4] was “binds” each time.

B3: CITH (LSm14) (protein, UniProt Q8IK89 1-328)
chain: MSSVSTLPYIGSKISLISNSEIRYEGILYTINTHESTVALQNVRSFGTEGRRQPDIAPSNEVYDFIIFRGKDIKDVTVSETGKNIPDDPAIVSMNIAPSSKNNITDNLNYNNNMNINKSLKVNNNLISSNDRNMNNRRYYNNRPNYNFHYNNRNYNNNQNNNNNNNNNNYKYRNYRNYERSNYVIGELQSQPNPALKNKFSPDFDFNTNNMKFDKNNILEEKNKEDSTALNNHMQVGGYDKNSSFFDNISCETLDKKQGIDEKVDREKLRMLDVDTFGIAAAHYRTNMHNRHQNRMKMRNNRKHKIFSQNNYNYFNRNQNPFNRYPPY
B3: the binding result in assay [2], in assay [5], in assay [3] and in assay [4] was “binds” throughout.

B4: CAF40 (protein, UniProt Q8I427 1-652)
chain: MVINNDMVKGSNKMKNLNKNIFPVNPNNNVVSNINSSKLNQGGVCIAEDINMGSVNNTNDLNNSDEIINCGNMNKSEDINKPGDINNSDDVNNPDDINNKINVNGIHSPLNESLQNLDRNNMSVCNLGNVTTPVNNINNNINNNINCNNNNNNNNNNSSNSNSNSNSNSNPICINNNENNKYKNSNKCNDFHKDNTTSEQDQTKNDNNINNLSSGQENTINNEEEKKKVYQLVYDLCFSEKRENALLELSRKRETYHDIAPVLWNSFGTITTLLQEIVSIYPQLSPPLLTTSSSNRVCNSLALLQCVASHPETKQHFLNAHIPLFLYPFLNAESKNRPFEYLRLTSLGVIGALVKVDNPEVINFLLQTEIIPLCLRIMETGSELSKTVATFIVQKILIDELGLNYICATPERFYAVSTVLANMVNSLVENPSSRLLKHIVRCYLRLSENARALEALKYCLPEPLRHVHKTFLPCLKEDPFTKKWLLQLLYNINNDDENLTMKNTNFINHNTNQNTSNINNQTLNKISQNVYTNLNVPTALNEININIPKTDTHTNIHNINDNIENSSSQSFNNKINDTNLKCGKINNNKLNPDLTNNDINDNNINDNNNDNNDNNNINDNIMNDDNNNINGDSVNNNNMNDDSVNNNNMNDN
Regarding B4, the binding entry in assay [1], in assay [2] and in assay [3] was “binds” throughout.
